This is one part of the list. The main result of the screen is listed elsewhere. These columns were measured beside it and carry no call. Most of these compounds were active or inconclusive in the main read-out, so they are no random draw. Potencies come from curve fits of mixed quality, noted in brackets.
Experiment: qHTS Assay for Lipid Storage Modulators in Drosophila S3 Cells;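 as to cell number change: cells counted by Cell Tracker Red CMTPX staining in the red channel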
Conditions: BODIPY lipid droplet fluorescence, 18-24 h; for cell number change: measured here: cell count max response, cells fed with added oleic acid
Procedure, shortened: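 Laser-scanning cytometry quantifies lipid droplet accumulation (500–530 nm total intensity; droplet/cell object ratio) in oleic acid-fed (400 uM added) Drosophila S3 cells treated with a concentration series. 20 uM Triacsin C defined 100% inhibition.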

[1] = measured here: lipid fluorescence (Fed channel) AC50, cells fed with added oleic acid
[2] = measured here: cell number channel AC50, cells fed with added oleic acid

SMILES: CC(/C=N/NC(=O)c1ccc(Cn2cc([N+](=O)[O-])cn2)o1)=C\c1ccccc1
- cell number change: 1.74%

SMILES: CC(=O)c1ccc(Sc2ccccc2N)c([N+](=O)[O-])c1
- cell number change: 19.7%
- AC50 [1]: 1.64 µM [rising, full curve, poor fit]

SMILES: CC(C)n1cc(CN2CCC(C(=O)Nc3ccc(Oc4ccccc4F)cc3)CC2)cn1
- cell number change: -20.2%
- AC50 [1]: 0.58 µM [rising, single point]

SMILES: CCCC(=O)c1cc(-c2nc3ccccc3n2C)n(C)c1
- cell number change: 141%
- AC50 [1]: 14.6 µM [rising, partial curve]

SMILES: O=C(NC(Cc1ccc2c(c1)OCO2)C(=O)N1CCCC1C(=O)O)c1ccccc1 (configuration not stated)
- cell number change: -3.14%
- AC50 [1]: 0.116 µM [falling, full curve, poor fit]

SMILES: COc1cc(NC(=O)c2cc3c(Cl)nc4ccccc4c3s2)cc(OC)c1OC
- cell number change: -31.8%
- AC50 [2]: 6.51 µM [rising, partial curve]
- AC50 [1]: 6.51 µM [rising, partial curve]

SMILES: CCN(CC)C(=O)Cn1c(C)c(/C=C/c2cc[n+](C)cc2)c2ccccc21
- cell number change: 30.1%

SMILES: Cc1cnc(C(=O)OCC(=O)c2cc(C)n(C)c2C)cn1
- cell number change: -9.47%
- AC50 [2]: 4.11 µM [rising, partial curve, poor fit]
- AC50 [1]: 6.51 µM [rising, partial curve, poor fit]

SMILES: Cc1ccc(-n2nc3ccc(NC(=O)c4ccc5c(c4)OCO5)cc3n2)cc1
- cell number change: 21.3%

SMILES: C1=C(C(c2nnnn2C2CCCCC2)N2CCCCC2)COc2ccccc21 (configuration not stated)
- cell number change: -1.18%

SMILES: Cc1nc(C(=O)NNC(=O)Nc2ccccc2)cs1
- cell number change: 22.1%
- AC50 [1]: 29.1 µM [rising, single point]

SMILES: Cc1ccc(C)c(S(=O)(=O)N2CCN(C(=O)c3ccccc3Cc3ccccc3)CC2)c1
- cell number change: 33.7%
- AC50 [2]: 29.1 µM [rising, single point]

SMILES: CC(=O)NC(=S)NNC(=O)CCc1ccccc1
- cell number change: -42.8%
- AC50 [2]: 6.51 µM [falling, single point]

SMILES: CN1CCN(C(=O)c2ccc(COc3ccc(C(C)(C)C)cc3)o2)CC1
- cell number change: -3.11%
- AC50 [1]: 6.51 µM [rising, single point]

SMILES: Cc1cc(=O)[nH]c(-c2cccs2)n1
- cell number change: 20.7%
- AC50 [2]: 0.0259 µM [rising, full curve, poor fit]
- AC50 [1]: 0.0058 µM [rising, full curve, poor fit]

SMILES: COc1ccc(Cc2nnc(SCC(=O)c3ccc4c(c3)NC(=O)CO4)o2)cc1
- cell number change: 18.1%

SMILES: Cc1cc(C)cc(NC(=O)C2CCCN(S(=O)(=O)c3c(C)noc3C)C2)c1 (configuration not stated)
- cell number change: -16.2%
- AC50 [1]: 23.1 µM [falling, single point]

From PubChem BioAssay AID2685 (National Center for Advancing Translational Sciences (NCATS), 2010)
